Source: patent US4409141 (dated 1983)
*: point of attachment. ClZ = O=C(OCc1ccccc1Cl)*; Boc = CC(C)(C)OC(=O)*; OBn = c1ccc(CO*)cc1; Bn = c1ccc(C*)cc1

Test: general procedure: solution-phase peptide synthesis; WSCI/HOBT; OSU and ONP active esters with HOBT, 2,4-dinitrophenol; azide method

BOC--Asn--VAl--Leu--Val--OH
step yield (late stage modification step): 71.4%

Boc-AD(OBn)K(ClZ)AD(OBn)VD(OBn)VLT(Bn)K(ClZ)AK(ClZ)S(Bn)Q-OBn
step yield (coupling step): 98.3%

P(62-84): BOC--Ser(Bzl)--His--Glu(OBzl)--Lys(Z--Cl)--Ser(Bzl)--Leu--Gly--Glu(OBzl)-- Ala--Asp(OBzl)--Lys(Z--Cl)--Ala--Asp(OBzl)--Val--Asp(OBzl)--Val--Leu--Thr(Bzl)--Lys(Z--Cl)--Ala--Lys(Z--Cl)--Ser(Bzl)--Gln--OBzl
step yield (coupling step): 88.4%

Boc-K(ClZ)S(Bn)LG-OH
step yield (late stage modification step): 87%

Boc-D(OBn)VLT(Bn)K(ClZ)AK(ClZ)S(Bn)Q-OBn
step yield (coupling step): 99.14%

Boc-VLT(Bn)K(ClZ)A-OH
step yield (late stage modification step): 73.1%

Boc-VD(OBn)VLT(Bn)K(ClZ)AK(ClZ)S(Bn)Q-OBn
step yield (coupling step): 98.2%

BOC--Asn--VAl--Leu--Val--OBzl
step yield (coupling step): 79.5%

Boc-D(OBn)K(ClZ)AD(OBn)VD(OBn)VLT(Bn)K(ClZ)AK(ClZ)S(Bn)Q-OBn
step yield (coupling step): 95.0%

Boc-K(ClZ)S(Bn)LG-OBn
step yield (coupling step): 94.6%

Boc-S(Bn)HE(OBn)K(ClZ)S(Bn)LG-OH
step yield (coupling step): 60.1%

Boc-E(OBn)AD(OBn)K(ClZ)AD(OBn)VD(OBn)VLT(Bn)K(ClZ)AK(ClZ)S(Bn)Q-OBn
step yield (coupling step): 96.5%

Boc-D(OBn)VD(OBn)VLT(Bn)K(ClZ)AK(ClZ)S(Bn)Q-OBn
step yield (coupling step): 94.2%

Boc-VLT(Bn)K(ClZ)A-OMe
step yield (coupling step): 94.9%

BOC--Lys(Z--Cl)--Ala--Asp(OBzl)--Val--Asp(OBzl)--Val--Leu--Thr(Bzl)--Lys(ZCl)--Ala--Lys(Z--Cl)--Ser (Bzl)--Gln--OBzl
step yield (coupling step): 96.7%

Boc-E(OBn)K(ClZ)S(Bn)LG-OH
step yield (coupling step): 73.5%

Boc-VLT(Bn)K(ClZ)AK(ClZ)S(Bn)Q-OBn
step yield (coupling step): 90.68%

P(55-84): BOC--Glu(OBzl)--Asp(OBzl)--Asn--Val--Leu--Val--Glu(OBzl)--Ser(Bzl)--His--Glu(OBzl)--Lys(Z--Cl)--Ser(Bzl)--Leu--Gly--Glu(OBzl)--Ala--Asp(OBzl)--Lys(Z- -Cl)--Ala--Asp(OBzl)--Val--Asp(OBzl)--Val--Leu--Thr(Bzl)--Lys(Z--Cl)--Ala-- Lys(Z--Cl)--Ser(Bzl)--Gln--OBzl
step yield (coupling step): 93.3%

P(61-84): BOC--Glu(OBzl)--Ser(Bzl)--His--Glu(OBzl)--Lys(Z--Cl)--Ser(Bzl)--Leu--Gly-- Glu(OBzl)--Ala--Asp(OBzl)--Lys(Z--Cl)--Ala--Asp(OBzl)--Val--Asp(OBzl)--Val- -Leu--Thr(Bzl)--Lys(Z--Cl)--Ala--Lys(Z--Cl)--Ser(Bzl)--Gln--OBzl
step yield (coupling step): 93.2%

P(56-84): BOC--Asp(OBzl)--Asn--Val--Leu--Val--Glu(OBzl)--Ser(Bzl)--His--Glu(OBzl)--Lys(Z--Cl)--Ser(Bzl)--Leu--Gly--Glu(OBzl)--Ala--Asp(OBzl)--Lys(Z--Cl)--Ala-- Asp(OBzl)--Val--Asp(OBzl)--Val--Leu--Thr(Bzl)--Lys(Z--Cl)--Ala--Lys(Z--Cl)- -Ser(Bzl)--Gln--OBzl
step yield (coupling step): 92.5%
